The record followed here is article PMC9897673.

The chains behind the UniProt entries cited, without tags or fusion partners. Where a name states a change or a piece, a line headed by the entry shows the natural chain unless it says otherwise.
UniProt O14745: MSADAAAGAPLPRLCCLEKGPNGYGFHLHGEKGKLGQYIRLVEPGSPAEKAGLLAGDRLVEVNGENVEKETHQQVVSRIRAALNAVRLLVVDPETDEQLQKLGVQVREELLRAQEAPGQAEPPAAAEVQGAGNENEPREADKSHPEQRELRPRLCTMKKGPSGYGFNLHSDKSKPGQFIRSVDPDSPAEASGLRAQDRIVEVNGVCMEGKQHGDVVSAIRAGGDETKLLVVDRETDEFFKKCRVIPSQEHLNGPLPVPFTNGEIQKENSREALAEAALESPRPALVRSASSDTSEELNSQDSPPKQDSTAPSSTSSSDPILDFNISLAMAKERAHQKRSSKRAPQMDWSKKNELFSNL
UniProt P05556: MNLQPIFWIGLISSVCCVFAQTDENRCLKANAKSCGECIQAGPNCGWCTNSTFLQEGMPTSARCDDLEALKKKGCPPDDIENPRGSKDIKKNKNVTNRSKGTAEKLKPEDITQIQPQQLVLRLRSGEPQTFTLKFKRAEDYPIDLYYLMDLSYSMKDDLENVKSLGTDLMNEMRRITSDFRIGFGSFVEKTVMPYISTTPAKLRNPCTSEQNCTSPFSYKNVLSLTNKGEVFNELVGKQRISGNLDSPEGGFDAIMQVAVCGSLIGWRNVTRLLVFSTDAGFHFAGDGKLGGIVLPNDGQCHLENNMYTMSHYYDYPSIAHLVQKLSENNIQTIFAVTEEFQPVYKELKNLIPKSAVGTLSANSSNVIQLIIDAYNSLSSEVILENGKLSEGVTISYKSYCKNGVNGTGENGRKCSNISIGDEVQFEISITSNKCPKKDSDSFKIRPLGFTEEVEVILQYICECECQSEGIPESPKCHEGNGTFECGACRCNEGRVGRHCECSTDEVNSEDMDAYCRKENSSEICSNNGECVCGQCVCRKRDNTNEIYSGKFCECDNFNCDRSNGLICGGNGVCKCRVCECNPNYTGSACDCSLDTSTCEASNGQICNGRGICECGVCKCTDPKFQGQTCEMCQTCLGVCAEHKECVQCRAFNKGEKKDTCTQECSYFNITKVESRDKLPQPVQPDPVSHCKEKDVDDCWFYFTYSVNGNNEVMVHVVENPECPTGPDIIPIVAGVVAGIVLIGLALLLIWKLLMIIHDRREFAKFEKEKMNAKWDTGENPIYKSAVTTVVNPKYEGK

This experiment addresses T1, GFP-PODXL WT (podocalyxin isoform A, extracellularly GFP-tagged) (human) (UniProt O00592).
T1 sequence: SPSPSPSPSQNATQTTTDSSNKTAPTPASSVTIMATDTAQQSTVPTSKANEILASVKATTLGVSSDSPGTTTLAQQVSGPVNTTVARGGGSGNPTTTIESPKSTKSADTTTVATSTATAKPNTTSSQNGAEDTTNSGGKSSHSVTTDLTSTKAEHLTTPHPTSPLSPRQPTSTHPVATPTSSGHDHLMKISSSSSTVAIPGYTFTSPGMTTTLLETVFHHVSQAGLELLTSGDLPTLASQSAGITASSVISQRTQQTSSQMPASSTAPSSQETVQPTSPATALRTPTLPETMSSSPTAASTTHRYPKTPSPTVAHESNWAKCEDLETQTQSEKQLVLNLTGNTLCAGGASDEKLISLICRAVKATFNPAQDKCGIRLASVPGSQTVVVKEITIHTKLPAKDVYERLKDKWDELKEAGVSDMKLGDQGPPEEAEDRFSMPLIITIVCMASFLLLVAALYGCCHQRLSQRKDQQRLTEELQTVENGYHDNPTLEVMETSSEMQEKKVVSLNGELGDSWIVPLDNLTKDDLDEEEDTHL
In words: affinity purification with mass spectrometry; GFP-Trap precipitation from SILAC-labelled PC3 cells overexpressing GFP, GFP-PODXL or GFP-PODXL sorted for high surface levels; in-gel digestion, LC-MS/MS.

These are yes or no findings as the source states them, for the method shown. Binding seen in cells or lysates may run through a third protein. Here binding means that the protein was enriched with, or labelled near, the bait; the list need not be complete. Where a sequence is shown, tags or fusion partners need not be part of it.

For “SLC9A3R1/NHERF1, endogenous (from UniProt O14745 1-358)”, the binding result is “binds”.

Regarding “β1-integrin (ITGB1), endogenous (from UniProt P05556 21-798) (receptor)”, the binding entry is listed as “binds”.
